Results from PubChem BioAssay AID2685 (National Center for Advancing Translational Sciences (NCATS), 2010).
Among all 320,000 compounds or so, about 2,100 (0.66%) were called active. Inconclusive results, whose numbers are uncertain, are shown with a selection of clear calls. The call rests on the fitted dose curve; in most records, active means well fitted inhibition curve with a large enough effect in the signal ratio, with a control signal flat (not every such curve was filed as active); inconclusive means small, poorly fitted or top-dose-only effect, or effect the other way, or a change in a side signal; inactive means flat fitted curve, though single readings scatter; the % refers to the signal ratio. Where the call is inconclusive, the potency comes from a doubtful curve fit.

Test: qHTS Assay for Lipid Storage Modulators in Drosophila S3 Cells
Conditions: BODIPY lipid droplet fluorescence, 18-24 h, cells fed with added oleic acid; lipid storage change, negative = inhibition: at 46.1 µM (top of the series) unless noted
Procedure, shortened: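 Drosophila S3 cells got compounds at several concentrations plus oleic acid (400 uM solution). Laser-scanning cytometry with 488 nm excitation read lipid droplets at 500-530 nm and cells at 575-640 nm. Percent activity was relative to 20 uM Triacsin C.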
On the % scale 0 is the no-effect control and ±100 the full control effect; potency means the concentration at half of the fitted maximal effect.

Potency, active:
Cc1c(OCC(=O)NCC(O)c2ccccc2)ccc2c(-c3ccccc3)cc(=O)oc12 (configuration not stated) 16.4 µM, O=C(CCc1nnc2n(Cc3ccc(F)cc3)c(=O)c3ccccc3n12)N1CCN(c2ccccn2)CC1 13 µM

Potency, inconclusive:
Cc1ccc(-c2nc3ccccc3o2)cc1NC(=O)Cc1cccs1 0.116 µM [falling, full curve, poor fit], CCOc1ncccc1C(=O)OCC(=O)N1c2ccccc2CC1C (configuration not stated) 16.4 µM [activator, partial curve], COC(=O)c1cc(OC)c(OC)cc1NC(=O)Cc1cccs1 29.1 µM [falling, single point], Cc1cc(-c2n[nH]c(=S)n2/N=C/c2cc([N+](=O)[O-])ccc2Cl)n[nH]1 32.6 µM [falling, single point], COc1ccc(CCCC(=O)N/N=C/c2ccc(C)cc2)cc1 0.0517 µM [activator, full curve], CCN(Cc1ccccc1)S(=O)(=O)c1cc(C(=O)c2c(N)n(C)c(=O)n(C)c2=O)ccc1OC 0.82 µM [falling, full curve, poor fit], CCCN1C(=O)/C(=C\C=C2/Sc3ccccc3N2CC)SC1=S 0.0517 µM [falling, full curve, poor fit], CCCCN1C(=O)c2ccc(C(=O)Nc3ccc(C)c(S(=O)(=O)N(C)C)c3)cc2C1=O 29.1 µM [falling, single point], CCN(CC(=O)Nc1ccc(NC(C)=O)cc1)C(=O)c1oc2c(ccc3ccccc32)c1C 5.8 µM [activator, partial curve], COc1ccc(Cl)cc1S(=O)(=O)N1CCC(C(=O)NCc2ccco2)CC1 0.164 µM [falling, full curve], CCCCn1nc(C(=O)N(CC)CC(=O)Nc2c(F)cccc2F)c2ccccc2c1=O 0.0058 µM [falling, full curve, poor fit], COc1ccccc1NC(=S)NCCN1CCOCC1 32.6 µM [falling, single point], CC(NC(=O)OC(C)(C)C)C(=O)Oc1ccc2ccc(=O)oc2c1 (configuration not stated) 4.11 µM [falling, full curve], CC(Oc1ccccc1)C(=O)Nc1ccccc1F (configuration not stated) 6.51 µM [falling, single point], CCc1ccc(-c2cc(C)no2)cc1S(=O)(=O)N1CCN(C(=O)c2ccco2)CC1 0.13 µM [falling, full curve, poor fit], Cc1cc(C)cc(OCC(=O)Nc2ccc3c(c2)OCO3)c1 18.4 µM [activator, single point], O=C(CN(C(=O)c1csnn1)c1cccc2c1CCCC2)NCc1ccc(F)cc1 25.9 µM [falling, single point], CC(=O)N1CCN(c2ccccc2NC(=O)c2cc(Br)ccc2Cl)CC1 1.46 µM [activator, partial curve], CC1(C)CC(=O)C(C=NCCN2CCN(C(=O)NC34CC5CC(CC(C5)C3)C4)CC2)=C(O)C1 5.17 µM [falling, full curve], C[C@H]1CCC(=O)N([C@H](CSc2ccc(Br)cc2)Cc2ccccc2)CC1 25.9 µM [falling, single point], O=C(CN1C(=O)NC2(CCCc3ccccc32)C1=O)NCc1cccs1 (configuration not stated) 0.58 µM [falling, full curve], CCCN(CCC)C(=O)c1cc(-c2ccc3c(c2)OCO3)nc2ccccc12 0.206 µM [rising, partial curve, poor fit]

Lipid storage change, negative = inhibition, inactive:
CCc1ccc(CN(C)C(=O)c2cc(COc3cccc4cnccc34)on2)cc1, Cn1cccc1C(=O)OCC(=O)Nc1cc(C(C)(C)C)nn1-c1ccccc1, O=P(O)(OCc1ccccc1)OCc1ccccc1, OCC[n+]1ccc(/C=C/c2c[nH]c3ccccc23)cc1

Lipid storage change, negative = inhibition, inconclusive:
O=C(CN1C(=O)c2cccc3cccc1c23)N1CCN(c2cccc(Cl)c2)CC1 -66.6%, Cc1c(O)nc(SCC(=O)Nc2cccc(C(F)(F)F)c2)n(-c2ccccc2)c1=O 20.2%, Cc1ccc(-c2nn(-c3ccccc3)cc2/C=C/C(=O)Nc2nccs2)cc1 -29.7%, CCc1nc2c(c(=O)c3ccccc3n2C)c(=O)n1-c1ccc(F)cc1 30.9%, CCOC(=O)C1CCCN(c2c(NCCN3CCCCC3C)c(=O)c2=O)C1 (configuration not stated) -12.8%, Cc1cc(=O)oc2cc(NC(=O)CCC(=O)O)ccc12 -3.74%, N#Cc1cc(S(=O)(=O)N2CCOCC2)ccc1N1CCOCC1 53.1%, Cc1ccc(CO/N=C/C2=C(Cl)c3ccccc3CC2)cc1 11.4%, O=C1c2ccccc2C(Nc2ccc(F)cc2F)N1CCN1CCOCC1 (configuration not stated) 22.3%, Cc1ccc(S(=O)(=O)CC(=O)Nc2cccc(C)n2)cc1 41.9%, CCCn1nnc(NC(=O)c2cccc(OCC(C)C)c2)n1 17.6%, CCOC(=O)N1CCN(C(=O)CS(=O)(=O)Cc2nc(-c3cccc(OC)c3)oc2C)CC1 48.4%, Cc1cccc(CNC(=O)CCc2nnc(C3CCCCC3)o2)c1 -33.7%, CN(Cc1ccccc1)C(=O)c1ccc(NC(=O)C2=CSCCO2)cc1 6.02%, Cc1ccc(/C=C(\C#N)c2nc3ccccc3[nH]2)s1 -20.5%, Cc1ccc(SCCC(=O)NCc2ccncc2)cc1 17.1%, CCOc1ccc(CNC(=O)Cn2ccc3cc(S(=O)(=O)N4CCCC4)ccc32)cc1 -13.6%, Cc1cc(N2CCN(c3ccccc3F)CC2)nc2cc(O)ccc12 -6.15%, COc1ccc(C(=O)NCc2cc(C)nc3ccccc23)cc1OC 14%, Nc1nc(C23CC4CCC(CC(C4)C2)C3)cs1 3.7%, CCN(CC(=O)Nc1ccc(S(=O)(=O)N2CCOCC2)cc1)Cc1ccccc1 -21.3%, COc1ccc(-c2nc(CS(=O)(=O)CC(=O)NCCCN3CCN(C)CC3)c(C)o2)cc1 -58.2%, CCN(CC(=O)NCc1ccc(F)cc1)C(=O)CN1CCN(c2ccccc2OC)CC1 -32.4%, CSc1nc(NC(C)C)nc(N2CCOCC2)n1 -33.8%, O=C(Cc1ccc(Cl)cc1)Nc1ccccc1N1CCN(C(=O)c2ccccc2)CC1 -6.2%, COc1ccc(CCN2CCCn3c2nc2c3c(=O)n(Cc3ccccc3F)c(=O)n2C)cc1OC 15.6%, C[C@@H](C(=O)OCC(=O)Nc1cc(S(=O)(=O)N2CCOCC2)ccc1Cl)N1C(=O)C2CCCCC2C1=O (some centres not stated) 54.3%, Cc1ccc(C(=O)OCC(=O)NCc2ccco2)cc1S(=O)(=O)N1CCOCC1, Cc1oc2c(C)c3oc(=O)c(CC(=O)N[C@@H](CC(C)C)C(=O)N[C@@H](Cc4ccccc4)C(=O)O)c(C)c3cc2c1C -24.2%, COc1ccc(OC)c(-c2csc(-c3cccs3)n2)c1 254%, COC(=O)c1ccc(NS(=O)(=O)c2ccc3c(c2)n(C)c(=O)n3C)cc1 -81.7%, CCNc1nc(Oc2ccc(F)cc2)cc(C(F)(F)F)n1 -15.1%, CCc1c(C)[nH]c(=S)c(C#N)c1C 18%, COc1ccc(S(=O)(=O)CCC(=O)N2CCN(c3ccc(C(C)=O)cc3)CC2)cc1 55.4%, Cc1cc(C)nc(SCC(=O)Nc2nonc2N)n1 15.9%, Cc1nc(-c2ccccc2)sc1C(=O)/C=C/N(C)C -6.94%, N/C(Cc1ccc([N+](=O)[O-])cc1)=N\OC(=O)C(c1ccccc1)c1ccccc1 -27.9%, CC1Cc2ccccc2N1S(=O)(=O)c1cccc(C(=O)N2CCN(c3ncccn3)CC2)c1 (configuration not stated) -37.7%, CC1(C)CCC(=O)N2CC[C@H]3C[C@H](OC(=O)Nc4ccc5c(c4)OCO5)C[C@@H]1[C@H]32 3.9%, O=C(CC1SC(N2CCCCC2)=NC1=O)Nc1cccc(C(=O)NCc2ccc(F)cc2)c1 (configuration not stated), CC(C)(C)/C(O)=C/c1nc2ccccc2[nH]c1=O -20.6%, COc1ccc(NS(=O)(=O)c2cc(C)ccc2C)cc1 47.6%, COC(=O)c1ccc(COc2cccc3c2CCN(Cc2cccc(C)c2)C3=O)o1 -12.2%, COc1ccc(-c2cc(C(=O)Nc3c(F)cc(F)cc3Br)no2)cc1 57.8%, COc1ccc(CCC(=O)Nc2ccc(Br)cn2)cc1 2.51%, CSc1ccc(CCNC(=O)CCc2nnc3ccc(N4CCCC4)nn23)cc1 -45.1%, COCCCNc1ccnc2c(Cl)cccc12 18.6%, Cc1oc(-c2cccc(Cl)c2)nc1CN1CCC(C(=O)N2CCN(c3ccccc3F)CC2)CC1 15.6%, Cc1nnc(SCC(=O)N2CCN(c3ccccc3)CC2)n1C1CC1 19.4%
